This note sets out measurements from article PMC5622071, “The identification of molecular target of (20S) ginsenoside Rh2 for its anti-cancer activity” (Scientific Reports, 2017).

Sequences of proteins named here, by UniProt entry; tags and fusion partners are left off. Residues count along the entry.
UniProt P19838, residues 1-433: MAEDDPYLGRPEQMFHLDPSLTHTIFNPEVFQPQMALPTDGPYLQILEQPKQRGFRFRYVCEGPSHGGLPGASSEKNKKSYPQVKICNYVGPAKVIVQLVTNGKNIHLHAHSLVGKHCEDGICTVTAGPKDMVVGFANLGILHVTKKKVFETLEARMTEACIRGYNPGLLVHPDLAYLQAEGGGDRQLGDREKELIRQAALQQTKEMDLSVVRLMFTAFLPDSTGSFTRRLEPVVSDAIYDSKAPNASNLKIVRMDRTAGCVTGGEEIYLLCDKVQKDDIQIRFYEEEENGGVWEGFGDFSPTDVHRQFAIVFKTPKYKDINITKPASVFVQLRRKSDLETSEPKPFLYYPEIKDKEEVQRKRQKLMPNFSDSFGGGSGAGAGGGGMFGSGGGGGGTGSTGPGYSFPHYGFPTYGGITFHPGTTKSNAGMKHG
UniProt P07355: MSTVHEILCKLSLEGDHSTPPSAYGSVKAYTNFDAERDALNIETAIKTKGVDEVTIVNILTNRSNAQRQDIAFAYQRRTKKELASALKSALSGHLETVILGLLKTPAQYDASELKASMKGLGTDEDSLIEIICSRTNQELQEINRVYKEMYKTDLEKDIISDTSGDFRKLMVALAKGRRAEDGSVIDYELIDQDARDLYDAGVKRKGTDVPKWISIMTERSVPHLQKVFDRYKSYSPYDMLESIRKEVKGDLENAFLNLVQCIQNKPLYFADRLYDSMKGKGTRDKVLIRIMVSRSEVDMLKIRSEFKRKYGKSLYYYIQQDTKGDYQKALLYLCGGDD

No constants are given. Whether binding was seen depends on the method and setting. Binding seen in cells or lysates may run through a third protein. Some binding calls cover weakened binding; strength is not graded here.

The assay has as its target NF-кB p50 subunit (human (endogenous in HepG2)) (UniProt P19838). The assay is described as follows: co-IP; HepG2 whole-cell lysate (2 mg), endogenous proteins; IP with anti-NF-кB p50 or anti-Annexin A2 antibody, protein A/G beads, 4 °C; cells treated 12 h without or with 3.75 μg/mL (20S)G-Rh2, 100 ng/mL PMA or 25 μg/mL etoposide.

Regarding Annexin A2 (from UniProt P07355 1-339), the binding result is given as “binds”.
